Results taken from PubChem BioAssay AID540276 (National Center for Advancing Translational Sciences (NCATS), 2011).
Among all 300,000 compounds or so, about 5,400 (1.8%) were called active. The inconclusive results got no clear call from the source; some entries with a clear call stand among them for comparison. The call rests on the fitted dose curve; tested in HEK293 cells. Where the call is inconclusive, the potency comes from a doubtful curve fit.

Assay: qHTS for inhibitors of binding or entry into cells for Marburg Virus
Conditions: Marburg virus pseudotyped entry inhibition, cell reporter; series mostly up to 37.8 µM
Potency means the concentration at half of the fitted maximal effect.

| Compound | Potency |
| --- | --- |
| CCN1CCN(C(=S)Nc2ccc3nc(N4CCN(CC)CC4)cc(C)c3c2)CC1 | inconclusive: 5.62 µM [inhibitor, partial curve, poor fit] |
| N#CC12CCCCC1CC1CCCCC1(C#N)N2Cc1cccnc1 (stereo not given) | inconclusive: 31.6 µM [activator, single point] |
| COc1cccc(Nc2cc(C)nc3ccccc23)c1 | inconclusive: 0.92 µM [inhibitor, full curve, poor fit] |
| COc1ccc(CCNC(=O)CSc2nnc3ccccn23)cc1 | inactive |
| Cc1ccc2nsnc2c1NC(=O)c1ccc(-c2cc(Cl)ccc2Cl)o1 | inconclusive: 35.5 µM [inhibitor, single point] |
| N=c1ccccn1CC(O)COc1ccccc1 (stereo not given) | inconclusive: 0.562 µM [activator, full curve, poor fit] |
| Cc1ccc(C)c(NC(=O)CCOc2ccccc2)c1 | inactive |
| Cc1csc2nc(O)c(C(=O)NC3CCCCC3)c(=O)n12 | inconclusive: 5.62 µM [activator, partial curve] |
| CCN(CC)CC(=O)Nc1ccccc1SCC(=O)Nc1ccsc1C(=O)OC | inconclusive: 11.2 µM [inhibitor, partial curve, poor fit] |
| CC(=O)/C(C#N)=C1\NC(=O)[C@@H](Cc2ccccc2)S1 | active: 2.51 µM |
| Cc1[nH]n(-c2ccccc2)c(=O)c1N=Nc1ccccc1C(=O)N1CCOCC1 | inconclusive: 5.62 µM [inhibitor, single point] |
| Cc1ccnc(NS(=O)(=O)c2ccc(NC(=O)C3CCCCC3)cc2)n1 | inactive |
| CCN(CC)CCCC(C)Nc1ccnc2cc(Cl)ccc12 (stereo not given) | active: 5.62 µM |
| CCN(CC)C(=O)CSc1nc(OC)cc(=O)[nH]1 | inconclusive: 10 µM [activator, single point] |
| Cc1ccc(C(=O)NCCC(=O)Nc2ccccc2C)cc1 | inconclusive: 4.47 µM [inhibitor, partial curve, poor fit] |
| Cn1c(=O)cc(SCC(=O)NCCC2=CCCCC2)c2ccc(Cl)cc21 | inconclusive: 0.355 µM [activator, full curve, poor fit] |
| Cc1c(C)c2cc3c(c(C)c2oc1=O)OCN(CCc1ccccc1)C3 | inactive |
| COc1ccccc1NC(=O)/C=C1\SCC(=O)N1C | inactive |
| COc1ccc(-c2csc(NC(=O)c3cccc(S(=O)(=O)N4CCN(C)CC4)c3)n2)cc1 | inconclusive: 23.1 µM [inhibitor, partial curve, poor fit] |
| O=C(Nc1ccc2nc(-c3ccco3)[nH]c2c1)c1ccco1 | inactive |
| Cc1nc(-c2ccc(F)cc2)c(CC(=O)N2CCN(S(=O)(=O)c3cccc(Cl)c3)CC2)s1 | inconclusive: 11.2 µM [inhibitor, single point] |
| CC(=O)C1C(c2ccc(Br)cc2)c2c(noc2C)CC1(C)O (stereo not given) | inconclusive: 15.8 µM [inhibitor, single point] |
| O=C(O)CCCCCNC(=O)c1ccccc1 | inconclusive: 6.31 µM [inhibitor, single point] |

Copied from the list:
Under Potency, CC(=O)C1C(c2ccc(Br)cc2)c2c(noc2C)CC1(C)O (stereo not given) is listed with inconclusive: 15.8 µM [inhibitor, single point]
Under Potency, COc1cccc(Nc2cc(C)nc3ccccc23)c1 is listed with inconclusive: 0.92 µM [inhibitor, full curve, poor fit]

(listing goes on)

| Compound | Potency |
| --- | --- |
| N#CCC(=O)Nc1ccc(C(=O)OCC(=O)c2ccc3c(c2)OCO3)cc1 | inactive |
| O=C(CN1CCSC1=O)N1CCN(S(=O)(=O)c2ccc(Cl)cc2)CC1 | inactive |
| CCOC(=O)N1CCC(NC(=O)C(Cc2ccccc2)NC(=O)c2ccco2)CC1 (stereo not given) | inactive |
| O=c1c2ccccc2cnn1Cc1ccc(Cl)c(Cl)c1 | inconclusive: 1 µM [activator, full curve, poor fit] |
| CS(=O)(=O)N1N=C(c2ccccc2)CC1c1cccs1 (stereo not given) | inactive |
| Cc1c(C(=O)N2CCN(c3ccccc3F)CC2)sc2nc(-c3ccccc3)cn12 | inconclusive: 0.103 µM [inhibitor, full curve, poor fit] |
| C(=N\N(c1ccccc1)c1ccccc1)/c1ccc(N2CCOCC2)s1 | inconclusive: 0.316 µM [activator, full curve] |
| Cc1ccc(NC(=O)CNc2ccc(OC(C)C)cc2)c(C)c1 | inactive |
| Cc1ccc(C(=O)N/N=C\c2cc3c(cc2Br)OCO3)s1 | inconclusive: 11.2 µM [inhibitor, single point] |
| COC(=O)COn1c(SCC(=O)OC)nc2ccccc2c1=O | inconclusive: 5.62 µM [inhibitor, single point] |
| CN(CCOc1ccc(Cl)cc1)C(=O)C1CCN(C(=O)c2ccc(Cl)cc2)CC1 | inconclusive: 15.8 µM [inhibitor, partial curve, poor fit] |
| O=C(Nc1cccnc1Cl)c1cc([N+](=O)[O-])ccc1Cl | inconclusive: 22.4 µM [inhibitor, partial curve] |
| CCC1CCC2(CC1)NC(=O)N(CC(=O)Nc1ccc(OC)cc1)C2=O (stereo not given) | inconclusive: 12.6 µM [activator, single point] |
| CC(=O)Nc1sc2c(c1C(c1ccccn1)N1CCCC1)CCCC2 (stereo not given) | inconclusive: 15.8 µM [inhibitor, single point] |
| O=[N+]([O-])c1ccc(OCC(O)CN(C2CCCCC2)C2CCCCC2)cc1 (stereo not given) | inconclusive: 17.8 µM [inhibitor, partial curve, poor fit] |
| CC1(C)CC(=O)c2sc(NC(=O)C(C)(C)C)nc2C1 | inconclusive: 12.6 µM [activator, partial curve, poor fit] |
| Cc1cc(C)c(S(=O)(=O)N2CCCOC2CNC(=O)C(=O)NCCc2c[nH]c3ccccc23)c(C)c1 (stereo not given) | inconclusive: 35.5 µM [inhibitor, single point] |
| O=C(Nc1ccc(S(=O)(=O)N2CCCC2)cc1)c1ccccc1 | inconclusive: 5.62 µM [activator, single point] |
| Cc1cccc(C(=O)NNC(=O)c2ccco2)c1O | inactive |
| COc1cc(NC(=S)NCCCN2CCOCC2)cc(OC)c1OC | inconclusive: 14.1 µM [inhibitor, single point] |
| Cc1ccc(C)c(NC2=NC3(CCCCC3)N=C(N)N2)c1 | inactive |
| COc1cc(/C=N/NC(=O)CN2CCOCC2)ccc1OCc1ccccc1 | inconclusive: 3.98 µM [activator, partial curve, poor fit] |
